Results published in publication PMC4086955.
Results are given in words; binding and its absence hold for the method and conditions named. For some assays here: Binding seen in cells or lysates may run through a third protein. Some binding calls cover weakened binding; strength is not graded here.

Protein sequences, listed by entry. Tags and fused reporters are not part of them. Lines headed by an entry give the natural chain unless they say otherwise; changes in a name come on top. Chains listed by the source or under a name are the forms on record and can include a tag or linker. Residues count along the entry.
UniProt P21802: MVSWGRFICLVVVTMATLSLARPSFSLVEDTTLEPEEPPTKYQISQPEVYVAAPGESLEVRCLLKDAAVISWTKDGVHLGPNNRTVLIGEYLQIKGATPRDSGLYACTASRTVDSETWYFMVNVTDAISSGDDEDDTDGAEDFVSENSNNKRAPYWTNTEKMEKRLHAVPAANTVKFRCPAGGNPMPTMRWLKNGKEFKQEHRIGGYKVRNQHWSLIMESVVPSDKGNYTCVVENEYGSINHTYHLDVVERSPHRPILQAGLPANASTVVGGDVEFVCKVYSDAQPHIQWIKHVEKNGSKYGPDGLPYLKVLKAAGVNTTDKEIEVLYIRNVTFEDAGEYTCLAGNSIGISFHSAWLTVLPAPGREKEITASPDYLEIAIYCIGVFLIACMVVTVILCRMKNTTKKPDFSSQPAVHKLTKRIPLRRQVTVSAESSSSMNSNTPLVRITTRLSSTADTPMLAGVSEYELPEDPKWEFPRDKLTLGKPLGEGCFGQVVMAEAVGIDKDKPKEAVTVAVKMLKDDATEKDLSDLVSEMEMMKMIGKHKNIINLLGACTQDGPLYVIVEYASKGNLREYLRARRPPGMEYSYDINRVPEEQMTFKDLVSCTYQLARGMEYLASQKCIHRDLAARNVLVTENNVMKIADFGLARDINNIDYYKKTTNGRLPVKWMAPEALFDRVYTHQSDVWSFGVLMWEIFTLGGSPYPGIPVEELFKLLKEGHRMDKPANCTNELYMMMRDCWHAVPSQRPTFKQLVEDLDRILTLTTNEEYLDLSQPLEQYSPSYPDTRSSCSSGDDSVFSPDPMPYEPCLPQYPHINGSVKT
membrane-bound FGFR2IIIc-FLAG: residues 22-821 of P21802
soluble form of wild-type FGFR2 (sFGFR2IIIc-FLAG): residues 22-377 of P21802
soluble form of FGFR2IIIc with the S252W mutation (sFGFR2IIIc^S252W-FLAG) (P21802-1, form named): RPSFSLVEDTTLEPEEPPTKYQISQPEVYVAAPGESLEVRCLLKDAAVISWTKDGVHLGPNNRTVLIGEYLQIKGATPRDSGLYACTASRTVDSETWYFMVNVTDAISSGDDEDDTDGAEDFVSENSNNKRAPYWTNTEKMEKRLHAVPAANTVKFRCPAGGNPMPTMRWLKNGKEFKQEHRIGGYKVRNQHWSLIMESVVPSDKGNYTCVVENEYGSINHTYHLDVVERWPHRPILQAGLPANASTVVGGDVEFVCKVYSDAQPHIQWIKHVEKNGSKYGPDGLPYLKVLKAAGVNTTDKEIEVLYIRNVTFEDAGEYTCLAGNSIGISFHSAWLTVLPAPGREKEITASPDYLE
FGFR2IIIc^S252W-FLAG (P21802-1, form named): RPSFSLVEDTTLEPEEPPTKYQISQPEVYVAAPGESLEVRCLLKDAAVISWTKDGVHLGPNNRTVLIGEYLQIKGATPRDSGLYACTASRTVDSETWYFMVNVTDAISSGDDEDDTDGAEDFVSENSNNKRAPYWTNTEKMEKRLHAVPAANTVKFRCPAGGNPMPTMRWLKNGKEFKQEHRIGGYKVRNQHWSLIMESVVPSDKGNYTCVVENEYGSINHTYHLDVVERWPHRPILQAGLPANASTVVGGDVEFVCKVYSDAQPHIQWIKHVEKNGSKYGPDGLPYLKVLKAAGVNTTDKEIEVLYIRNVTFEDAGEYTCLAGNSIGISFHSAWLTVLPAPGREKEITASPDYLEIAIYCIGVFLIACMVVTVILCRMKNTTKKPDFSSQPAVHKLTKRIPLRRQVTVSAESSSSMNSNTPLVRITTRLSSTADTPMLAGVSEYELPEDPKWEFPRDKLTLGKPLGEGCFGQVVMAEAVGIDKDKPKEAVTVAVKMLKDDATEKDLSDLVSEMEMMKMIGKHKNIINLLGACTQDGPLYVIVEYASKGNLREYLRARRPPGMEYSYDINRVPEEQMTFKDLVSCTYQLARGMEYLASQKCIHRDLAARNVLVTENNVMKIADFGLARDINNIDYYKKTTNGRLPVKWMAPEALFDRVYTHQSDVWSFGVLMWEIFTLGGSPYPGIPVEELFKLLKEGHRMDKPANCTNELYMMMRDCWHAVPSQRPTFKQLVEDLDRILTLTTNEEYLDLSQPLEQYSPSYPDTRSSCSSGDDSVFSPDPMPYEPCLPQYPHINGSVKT
full-length FGFR2IIIb with the S252W mutation (P21802, form named): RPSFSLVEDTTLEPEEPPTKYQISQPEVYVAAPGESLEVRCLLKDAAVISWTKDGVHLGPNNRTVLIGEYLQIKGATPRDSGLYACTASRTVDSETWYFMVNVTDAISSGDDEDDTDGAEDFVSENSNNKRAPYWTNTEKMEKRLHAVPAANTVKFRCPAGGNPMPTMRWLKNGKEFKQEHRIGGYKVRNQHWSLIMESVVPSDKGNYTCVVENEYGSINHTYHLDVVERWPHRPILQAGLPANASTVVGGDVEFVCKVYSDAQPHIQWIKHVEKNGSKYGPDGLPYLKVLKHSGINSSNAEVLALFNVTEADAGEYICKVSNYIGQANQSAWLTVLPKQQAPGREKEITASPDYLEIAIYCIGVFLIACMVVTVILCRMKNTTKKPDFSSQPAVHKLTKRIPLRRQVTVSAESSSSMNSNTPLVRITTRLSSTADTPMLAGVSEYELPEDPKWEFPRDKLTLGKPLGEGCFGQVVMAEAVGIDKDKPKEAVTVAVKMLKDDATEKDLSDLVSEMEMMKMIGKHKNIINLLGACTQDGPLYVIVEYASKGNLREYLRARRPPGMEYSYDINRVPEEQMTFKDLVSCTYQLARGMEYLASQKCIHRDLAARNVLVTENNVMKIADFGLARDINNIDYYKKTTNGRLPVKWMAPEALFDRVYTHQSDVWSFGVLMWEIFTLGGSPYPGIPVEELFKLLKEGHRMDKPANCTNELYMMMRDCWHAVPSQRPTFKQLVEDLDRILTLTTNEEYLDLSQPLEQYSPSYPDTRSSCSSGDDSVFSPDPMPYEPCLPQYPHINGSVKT
UniProt P15655, residues 10-154: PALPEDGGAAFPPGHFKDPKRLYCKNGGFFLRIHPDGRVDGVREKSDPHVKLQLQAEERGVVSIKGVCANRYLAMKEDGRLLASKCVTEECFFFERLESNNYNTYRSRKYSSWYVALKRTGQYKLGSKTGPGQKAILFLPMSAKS

What was measured:
[1] = molecular target: membrane-bound FGFR2IIIc-FLAG (UniProt P21802); assay: co-IP; Cos-7 cells co-transfected, lysed in RIPA buffer; immunoprecipitation with anti-FGFR2 polyclonal antibodies that recognise the cytoplasmic region, western blot with anti-FLAG
FGFR2IIIc^S252W-FLAG = FGFR2IIIc^S252W-FLAG (UniProt P21802); assay: as above
[2] = molecular target: full-length FGFR2IIIb with the S252W mutation (UniProt P21802); assay: as above
[3] = molecular target: soluble form of FGFR2IIIc with the S252W mutation (sFGFR2IIIc^S252W-FLAG) (UniProt P21802); assay: pull-down; Pull-down PolyHis Protein-Protein Interaction Kit; purified sFGFR2IIIc and sFGFR2IIIc^S252W named as bait proteins, Fgf2-His as prey protein; both purified
[4] = molecular target: soluble form of wild-type FGFR2 (sFGFR2IIIc-FLAG) (UniProt P21802); assay: as above

| binding [1] | binding (FGFR2IIIc^S252W-FLAG) | binding [2] | binding [3] | binding [4] | Substance |
| --- | --- | --- | --- | --- | --- |
| binds | binds | binds | – | – | soluble form of FGFR2IIIc with the S252W mutation (sFGFR2IIIc^S252W-FLAG) (from UniProt P21802-1 22-377) (domain or fragment) |
| – | – | – | binds | binds | His-tagged Fgf2 protein (Fgf2-His) (from UniProt P15655 10-154) (ligand) |
